Data source: PubChem BioAssay AID686938 (Drosophila RNAi Screening Center, 2013)
Aim: 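Looking for CRAC channel components and the factors controlling them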 (primary screen). Cells: Drosophila S2R+ cells. Reagent: long dsRNA against Drosophila genes, about 0.25 µg dsRNA per well, roughly 10,000 cells. Time to read-out: 5 days of knock-down before the calcium assay. Conditions: thapsigargin (SERCA pump blocker) to empty calcium stores; entry signal taken 4 min after adding it. Measurement: 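Duplicate raw fluo-4 intensities per well from a plate reader, at rest and four minutes after thapsigargin emptied calcium stores; entry-to-rest ratio filled for only some wells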. Scale: calcium entry signal: higher = stronger calcium signal after store depletion; resting calcium signal: higher = higher resting calcium signal. Units: calcium entry signal in fluorescence units; resting calcium signal in fluorescence units. Call rule: 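Hit if the duplicate-averaged plate z-score for entry over resting signal is under −3; wells with weak total dye signal (Fmax z < −2) or more than 5 off-targets removed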. Calls: active = strongly reduced calcium entry; inactive = no strong reduction.
In all, the deposit lists about 23,000 reagents; below is an unselected part of those that have a named target and a result. In the full data, 75 (0.33%) were called active. 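Raw plate signals without normalisation; calls rest on plate z-scores that were not deposited; ratio present for only 364 wells.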 Reagents against one gene are numbered here. Names joined by + are all predicted targets of the reagent. The record does not give: the dose of the treatment.

The opening 3 entries, ahead of the listing:
{"gene": "scrt (GeneID 38469)", "dsRNA no.": 1, "calcium entry signal, replicate 1": 3.73e7, "calcium entry signal, replicate 2": 4.24e7, "resting calcium signal, replicate 1": 2.21e7, "resting calcium signal, replicate 2": 2.23e7, "activity call": "inactive"}
{"gene": "scrt (GeneID 38469)", "dsRNA no.": 2, "calcium entry signal, replicate 1": 4.50e7, "calcium entry signal, replicate 2": 4.32e7, "resting calcium signal, replicate 1": 2.02e7, "resting calcium signal, replicate 2": 1.86e7, "activity call": "inactive"}
{"gene": "CG15386 + CG42371", "dsRNA no.": 1, "calcium entry signal, replicate 1": 3.94e7, "calcium entry signal, replicate 2": 3.92e7, "resting calcium signal, replicate 1": 1.71e7, "resting calcium signal, replicate 2": 1.65e7, "activity call": "inactive"}

The list itself, from the start:
{"gene": "scrt (GeneID 38469)", "dsRNA no.": 1, "calcium entry signal, replicate 1": 3.73e7, "calcium entry signal, replicate 2": 4.24e7, "resting calcium signal, replicate 1": 2.21e7, "resting calcium signal, replicate 2": 2.23e7, "activity call": "inactive"}
{"gene": "scrt (GeneID 38469)", "dsRNA no.": 2, "calcium entry signal, replicate 1": 4.50e7, "calcium entry signal, replicate 2": 4.32e7, "resting calcium signal, replicate 1": 2.02e7, "resting calcium signal, replicate 2": 1.86e7, "activity call": "inactive"}
{"gene": "CG15386 + CG42371", "dsRNA no.": 1, "calcium entry signal, replicate 1": 3.94e7, "calcium entry signal, replicate 2": 3.92e7, "resting calcium signal, replicate 1": 1.71e7, "resting calcium signal, replicate 2": 1.65e7, "activity call": "inactive"}
{"gene": "CG13643 (GeneID 50074)", "dsRNA no.": 1, "calcium entry signal, replicate 1": 3.89e7, "calcium entry signal, replicate 2": 5.13e7, "resting calcium signal, replicate 1": 1.84e7, "resting calcium signal, replicate 2": 2.39e7, "activity call": "inactive"}
{"gene": "CG13643 (GeneID 50074)", "dsRNA no.": 2, "calcium entry signal, replicate 1": 4.15e7, "calcium entry signal, replicate 2": 5.32e7, "resting calcium signal, replicate 1": 1.86e7, "resting calcium signal, replicate 2": 2.26e7, "activity call": "inactive"}
{"gene": "CG13876 (GeneID 38031)", "dsRNA no.": 1, "calcium entry signal, replicate 1": 3.34e7, "calcium entry signal, replicate 2": 4.80e7, "resting calcium signal, replicate 1": 1.63e7, "resting calcium signal, replicate 2": 2.25e7, "activity call": "inactive"}
{"gene": "Crz (GeneID 41742)", "dsRNA no.": 1, "calcium entry signal, replicate 1": 2.51e7, "calcium entry signal, replicate 2": 3.34e7, "resting calcium signal, replicate 1": 1.27e7, "resting calcium signal, replicate 2": 4.99e7, "activity call": "inactive"}
{"gene": "CG3687 (GeneID 36803)", "dsRNA no.": 1, "calcium entry signal, replicate 1": 4.21e7, "calcium entry signal, replicate 2": 5.49e7, "resting calcium signal, replicate 1": 1.74e7, "resting calcium signal, replicate 2": 2.39e7, "activity call": "inactive"}
{"gene": "ZAP3 (GeneID 31942)", "dsRNA no.": 1, "calcium entry signal, replicate 1": 4.11e7, "calcium entry signal, replicate 2": 4.46e7, "resting calcium signal, replicate 1": 1.99e7, "resting calcium signal, replicate 2": 2.07e7, "activity call": "inactive"}
{"gene": "ZAP3 (GeneID 31942)", "dsRNA no.": 2, "calcium entry signal, replicate 1": 3.94e7, "calcium entry signal, replicate 2": 4.20e7, "resting calcium signal, replicate 1": 1.95e7, "resting calcium signal, replicate 2": 2.13e7, "activity call": "inactive"}
{"gene": "ZAP3 (GeneID 31942)", "dsRNA no.": 3, "calcium entry signal, replicate 1": 3.29e7, "calcium entry signal, replicate 2": 4.36e7, "resting calcium signal, replicate 1": 1.68e7, "resting calcium signal, replicate 2": 1.99e7, "activity call": "inactive"}
{"gene": "TMEM216 + CG11760", "dsRNA no.": 1, "calcium entry signal, replicate 1": 2.52e7, "calcium entry signal, replicate 2": 3.51e7, "resting calcium signal, replicate 1": 1.16e7, "resting calcium signal, replicate 2": 1.43e7, "activity call": "inactive"}
{"gene": "Atu (GeneID 40684)", "dsRNA no.": 1, "calcium entry signal, replicate 1": 3.98e7, "calcium entry signal, replicate 2": 4.26e7, "resting calcium signal, replicate 1": 1.82e7, "resting calcium signal, replicate 2": 1.88e7, "activity call": "inactive"}
{"gene": "eIF3g1 (GeneID 31243)", "dsRNA no.": 1, "calcium entry signal, replicate 1": 1.82e7, "calcium entry signal, replicate 2": 2.12e7, "resting calcium signal, replicate 1": 1.21e7, "resting calcium signal, replicate 2": 1.29e7, "activity call": "inactive"}
{"gene": "SP (GeneID 39494)", "dsRNA no.": 1, "calcium entry signal, replicate 1": 3.15e7, "calcium entry signal, replicate 2": 4.99e7, "resting calcium signal, replicate 1": 1.58e7, "resting calcium signal, replicate 2": 2.13e7, "activity call": "inactive"}
{"gene": "Tk (GeneID 41456)", "dsRNA no.": 1, "calcium entry signal, replicate 1": 3.88e7, "calcium entry signal, replicate 2": 3.60e7, "resting calcium signal, replicate 1": 1.87e7, "resting calcium signal, replicate 2": 1.72e7, "activity call": "inactive"}
{"gene": "Tk (GeneID 41456)", "dsRNA no.": 2, "calcium entry signal, replicate 1": 1.94e7, "calcium entry signal, replicate 2": 5.08e7, "resting calcium signal, replicate 1": 1.05e7, "resting calcium signal, replicate 2": 2.11e7, "activity call": "inactive"}
{"gene": "Klp3A (GeneID 31240)", "dsRNA no.": 1, "calcium entry signal, replicate 1": 5.03e7, "calcium entry signal, replicate 2": 4.81e7, "resting calcium signal, replicate 1": 2.14e7, "resting calcium signal, replicate 2": 2.13e7, "activity call": "inactive"}
{"gene": "Klp3A (GeneID 31240)", "dsRNA no.": 2, "calcium entry signal, replicate 1": 3.93e7, "calcium entry signal, replicate 2": 4.02e7, "resting calcium signal, replicate 1": 2.19e7, "resting calcium signal, replicate 2": 1.78e7, "activity call": "inactive"}
{"gene": "SdhC (GeneID 41340)", "dsRNA no.": 1, "calcium entry signal, replicate 1": 3.27e7, "calcium entry signal, replicate 2": 2.78e7, "resting calcium signal, replicate 1": 1.55e7, "resting calcium signal, replicate 2": 1.46e7, "activity call": "inactive"}
{"gene": "Ost48 (GeneID 31849)", "dsRNA no.": 1, "calcium entry signal, replicate 1": 3.14e7, "calcium entry signal, replicate 2": 3.74e7, "resting calcium signal, replicate 1": 1.63e7, "resting calcium signal, replicate 2": 1.73e7, "activity call": "inactive"}
{"gene": "CG15286 (GeneID 34834)", "dsRNA no.": 1, "calcium entry signal, replicate 1": 4.54e7, "calcium entry signal, replicate 2": 3.54e7, "resting calcium signal, replicate 1": 2.11e7, "resting calcium signal, replicate 2": 1.82e7, "activity call": "inactive"}
{"gene": "Cyp12b2 (GeneID 37163)", "dsRNA no.": 1, "calcium entry signal, replicate 1": 5.00e7, "calcium entry signal, replicate 2": 5.57e7, "resting calcium signal, replicate 1": 2.16e7, "resting calcium signal, replicate 2": 2.54e7, "activity call": "inactive"}
{"gene": "CG42714 (GeneID 10178862)", "dsRNA no.": 1, "calcium entry signal, replicate 1": 4.67e7, "calcium entry signal, replicate 2": 3.31e7, "resting calcium signal, replicate 1": 2.76e7, "resting calcium signal, replicate 2": 1.49e7, "activity call": "inactive"}
{"gene": "geko (GeneID 50263)", "dsRNA no.": 1, "calcium entry signal, replicate 1": 3.59e7, "calcium entry signal, replicate 2": 5.53e7, "resting calcium signal, replicate 1": 1.71e7, "resting calcium signal, replicate 2": 2.05e7, "activity call": "inactive"}
{"gene": "geko (GeneID 50263)", "dsRNA no.": 2, "calcium entry signal, replicate 1": 3.86e7, "calcium entry signal, replicate 2": 5.25e7, "resting calcium signal, replicate 1": 1.71e7, "resting calcium signal, replicate 2": 1.89e7, "activity call": "inactive"}
{"gene": "BaraC (GeneID 246528)", "dsRNA no.": 1, "calcium entry signal, replicate 1": 3.10e7, "calcium entry signal, replicate 2": 4.55e7, "resting calcium signal, replicate 1": 1.49e7, "resting calcium signal, replicate 2": 4.34e7, "activity call": "inactive"}
